Measurements published in publication PMC9387936.
Results are given in words; binding and its absence hold for the method and conditions named. In cells and extracts the contact can be indirect. Some results given as binding are weak or reduced against the parent protein; the word gives no strength. Tags and fused reporters may be left off the sequences shown. Blank lines part the entries; values can stand above or below the binder they belong to.

Sequences of proteins named here, by UniProt entry; tags and fusion partners are left off.
UniProt P46100: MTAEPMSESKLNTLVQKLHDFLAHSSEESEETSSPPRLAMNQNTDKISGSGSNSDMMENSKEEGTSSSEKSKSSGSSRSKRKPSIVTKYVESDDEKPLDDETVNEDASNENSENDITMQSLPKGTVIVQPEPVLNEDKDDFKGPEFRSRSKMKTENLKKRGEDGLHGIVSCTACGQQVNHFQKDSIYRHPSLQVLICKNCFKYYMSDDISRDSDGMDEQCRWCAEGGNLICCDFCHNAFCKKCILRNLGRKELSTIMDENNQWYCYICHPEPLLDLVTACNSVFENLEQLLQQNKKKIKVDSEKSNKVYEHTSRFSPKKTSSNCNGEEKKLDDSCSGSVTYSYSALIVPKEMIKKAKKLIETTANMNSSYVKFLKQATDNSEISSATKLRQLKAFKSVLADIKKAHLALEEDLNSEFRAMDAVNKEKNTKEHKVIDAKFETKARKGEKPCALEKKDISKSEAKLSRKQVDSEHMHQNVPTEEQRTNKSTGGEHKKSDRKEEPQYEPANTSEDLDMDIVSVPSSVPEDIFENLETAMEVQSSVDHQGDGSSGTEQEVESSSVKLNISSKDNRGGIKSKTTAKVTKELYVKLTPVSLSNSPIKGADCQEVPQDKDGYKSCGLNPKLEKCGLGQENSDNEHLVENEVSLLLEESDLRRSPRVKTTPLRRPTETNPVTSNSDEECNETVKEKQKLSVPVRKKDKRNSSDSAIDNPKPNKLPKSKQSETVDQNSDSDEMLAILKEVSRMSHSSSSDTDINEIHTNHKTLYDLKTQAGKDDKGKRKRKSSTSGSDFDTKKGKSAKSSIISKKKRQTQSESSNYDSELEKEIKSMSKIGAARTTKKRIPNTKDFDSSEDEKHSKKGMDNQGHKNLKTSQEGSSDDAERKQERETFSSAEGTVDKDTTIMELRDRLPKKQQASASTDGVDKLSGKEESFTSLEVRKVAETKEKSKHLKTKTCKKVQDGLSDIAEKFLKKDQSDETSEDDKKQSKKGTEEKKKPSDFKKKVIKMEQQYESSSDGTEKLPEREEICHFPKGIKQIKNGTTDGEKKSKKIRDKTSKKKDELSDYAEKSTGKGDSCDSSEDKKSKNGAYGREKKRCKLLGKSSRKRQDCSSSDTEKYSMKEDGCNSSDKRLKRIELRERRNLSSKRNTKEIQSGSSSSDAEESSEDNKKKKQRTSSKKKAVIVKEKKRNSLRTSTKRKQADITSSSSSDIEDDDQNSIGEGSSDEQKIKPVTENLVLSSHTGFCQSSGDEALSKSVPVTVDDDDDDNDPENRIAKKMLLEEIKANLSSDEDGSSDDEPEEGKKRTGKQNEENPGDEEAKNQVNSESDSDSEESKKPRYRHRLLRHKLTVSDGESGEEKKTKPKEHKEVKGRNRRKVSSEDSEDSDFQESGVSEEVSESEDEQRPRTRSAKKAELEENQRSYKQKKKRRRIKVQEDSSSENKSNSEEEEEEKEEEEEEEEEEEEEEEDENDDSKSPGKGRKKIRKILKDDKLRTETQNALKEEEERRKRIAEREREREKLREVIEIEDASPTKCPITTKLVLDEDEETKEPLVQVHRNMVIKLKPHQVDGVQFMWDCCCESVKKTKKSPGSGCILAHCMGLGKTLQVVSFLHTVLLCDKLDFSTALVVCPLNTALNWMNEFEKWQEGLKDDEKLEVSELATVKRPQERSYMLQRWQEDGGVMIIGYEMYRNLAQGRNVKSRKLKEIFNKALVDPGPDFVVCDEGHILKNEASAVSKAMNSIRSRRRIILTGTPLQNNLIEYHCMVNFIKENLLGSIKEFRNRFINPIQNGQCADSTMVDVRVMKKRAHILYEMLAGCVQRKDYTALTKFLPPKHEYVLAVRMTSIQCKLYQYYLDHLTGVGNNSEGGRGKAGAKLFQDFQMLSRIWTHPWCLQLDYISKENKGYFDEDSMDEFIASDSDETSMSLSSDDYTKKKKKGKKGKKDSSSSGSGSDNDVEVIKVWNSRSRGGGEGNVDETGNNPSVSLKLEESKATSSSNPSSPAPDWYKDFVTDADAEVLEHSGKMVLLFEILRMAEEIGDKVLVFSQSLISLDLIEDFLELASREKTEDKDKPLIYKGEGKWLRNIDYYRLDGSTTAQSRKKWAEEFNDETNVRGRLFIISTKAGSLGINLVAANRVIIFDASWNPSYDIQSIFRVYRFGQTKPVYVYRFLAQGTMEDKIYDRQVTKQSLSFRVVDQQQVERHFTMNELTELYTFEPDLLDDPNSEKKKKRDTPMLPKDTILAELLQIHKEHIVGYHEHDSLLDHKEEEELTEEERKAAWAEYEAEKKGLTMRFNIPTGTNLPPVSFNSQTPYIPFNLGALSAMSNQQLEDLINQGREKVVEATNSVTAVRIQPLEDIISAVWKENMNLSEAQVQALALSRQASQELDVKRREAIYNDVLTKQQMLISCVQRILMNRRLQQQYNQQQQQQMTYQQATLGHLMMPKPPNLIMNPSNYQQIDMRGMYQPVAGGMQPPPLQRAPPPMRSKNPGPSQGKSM

Biological target: alpha thalassemia/mental retardation syndrome X-linked (ATRX) (human (endogenous in HEK293T)) (UniProt P46100)
Test: co-IP; HEK293T cells, stimulated with 0.5 ug/ml poly(I:C) HMW for 24 h, left unstimulated, or transfected with GFP-V5-IRF3; lysed in CoIP buffer (50 mM Tris-HCl pH 8.0, 150 mM NaCl, 5 mM EDTA, 0.5% NP-40); endogenous ATRX precipitated with anti-ATRX (D1N2E) on protein A-Sepharose or protein G-Dynabeads, 1.5 h at 4 C; IgG isotype control as negative control; Western blot

binding: binds
B1: interferon regulatory factor 3 (IRF3), endogenous (protein, UniProt Q14653 1-427)
chain: MGTPKPRILPWLVSQLDLGQLEGVAWVNKSRTRFRIPWKHGLRQDAQQEDFGIFQAWAEATGAYVPGRDKPDLPTWKRNFRSALNRKEGLRLAEDRSKDPHDPHKIYEFVNSGVGDFSQPDTSPDTNGGGSTSDTQEDILDELLGNMVLAPLPDPGPPSLAVAPEPCPQPLRSPSLDNPTPFPNLGPSENPLKRLLVPGEEWEFEVTAFYRGRQVFQQTISCPEGLRLVGSEVGDRTLPGWPVTLPDPGMSLTDRGVMSYVRHVLSCLGGGLALWRAGQWLWAQRLGHCHTYWAVSEELLPNSGHGPDGEVPKDKEGGVFDLGPFIVDLITFTEGSGRSPRYALWFCVGESWPQDQPWTKRLVMVKVVPTCLRALVEMARVGGASSLENTVDLHISNSHPLSLTSDQYKAYLQDLVEGMDFQGPGES

binding: binds
B2: GFP-V5-IRF3 (protein, UniProt Q14653 1-427)
chain: B1 chain
